{
  "source": "patent US7094760B2",
  "about": "“Peptides for treatment of inflammation and shock” (Salpep Biotechnology, Inc., priority 1996, dated 2006)",
  "tested_on": "ovalbumin-sensitized Sprague-Dawley rats, submandibular glands removed",
  "experiment": "anaphylactic hypotension and heart function (VPSP, dP/dt), Example 10",
  "assay_type": "in vivo, rat",
  "procedure": "Methods: Sprague-Dawley rats (200–300 g) were sensitized with 1 mg ovalbumin and 50 ng Pertussin toxin (Sigma) (24) one month prior to experimentation. The submandibular glands were removed bilaterally 7 days prior to the experiment by previously described procedures (23). Rats were anesthetized with sodium pentobarbital (65 mg/kg) and a tracheal tube (PE240 polyethylene tubing) was inserted before performing further surgeries. The jugular vein was-cannulated for injection of ovalbumin antigen, which was given as a bolus (100 μg/kg) over 10 sec. The right carotid artery was cannulated and the cannula tip was slowly advanced into the left ventricle, as detected when diastolic pressure fell to near 0 mmHg. The ventricular cannula was connected to a TXD-310 transducer and heart function parameters were recorded using a Digi-Med Heart Performance Analyser (Micro-Med, Louisville, Ky.). The effects of anaphylaxis on heart function were analysed by comparing the changes in ventricular peak systolic pressure (VPSP), and in the rate of ventricular contraction during systole (dP/dt) and relaxation during distole (−dP/dt). Antigen was injected at 10 min. The anaphylactic response was followed for 30 min.\nVery rapidly (within 1 min) after the intravenous injection of antigen into ovalbumin-sensitized rats, VPSP dropped and minimal ventricular pressures were measured at 5 min after initiation of the anaphylactic reaction.\nTo determine if anaphylaxis directly affected heart function, the percent changes in VPSP were plotted against percent changes in dP/dt and −dP/dt. […] By analysis of variance, the slopes of the regression lines of dP/dt and −dP/dt were not different from unity.",
  "data": [
    {"substance": "H-TDIFEGG-OH [SGP-T, submandibular gland peptide T, TDIFEGG]", "values": [
      {"measurement": "regression line % VPSP vs % dP/dt, intercept", "setting": "10 μg/kg", "value": "0.02(±0.02)"},
      {"measurement": "regression line % VPSP vs % dP/dt, slope", "setting": "10 μg/kg", "value": "1.00(±0.05)"},
      {"measurement": "regression line % VPSP vs % −dP/dt, intercept", "setting": "10 μg/kg", "value": "0.01(±0.02)"},
      {"measurement": "regression line % VPSP vs % −dP/dt, slope", "setting": "10 μg/kg", "value": "Y = 1.55(±0.04)X +"},
      {"measurement": "regression line % VPSP vs % dP/dt, slope", "setting": "35 μg/kg", "value": "1.17(±0.09)"},
      {"measurement": "regression line % VPSP vs % −dP/dt, intercept", "setting": "35 μg/kg", "value": "0.19(±0.03)"},
      {"measurement": "regression line % VPSP vs % −dP/dt, slope", "setting": "35 μg/kg", "value": "Y = 1.62(±0.09)X +"},
      {"measurement": "slopes of the regression lines of dP/dt or −dP/dt versus saline", "setting": "35 or 100 μg/kg", "value": "No differences"}
    ]}
  ]
}
